Reference: PubChem BioAssay AID248 (DTP/NCI, 2004)
The list is a part of this screen's results and no random one: it gathers tests that were run many times, whatever their T/C, doses with no T/C, and many T/C values between a quarter and a half above the control. Other doses and runs of a compound stand elsewhere. T/C: endpoint of the treated group in % of that of the vehicle group. Some doses have a count of surviving animals in place of a T/C: the source files T/C as zero there, which appears to mark a toxic dose or a test without result, not a measured value. Some doses without a T/C left all or most animals alive at the check, yet need not have been tolerated: the source hardly ever lists a survival T/C far under the control, and the zero likely stands for such cases as well. Survivors were counted at the toxicity check, usually on the fifth day, unless a day is given; later deaths do not show. Schedules are NCI's codes, taken here to give the interval after Q, in days (D) or hours (H), and the number of doses after X. Some entries hold several experiments; the results are listed from low to high. Some schedule codes hold Z or #, which are not explained here. Some structures stand for samples that the source files as different forms (salt, stereo form or complex); doses refer to the form tested. Where survival is the endpoint, the PubChem record calls one and a half times the control and up active, and a quarter to a half above the control has no call in these data; cut-offs in other NCI protocols can differ. Some T/C values are followed by the survivors on the day toxicity was checked, most often the fifth; without a count, all were alive then.

Test system: L1210 leukemia ip in BDF1 mice, survival T/C
Experiment: NCI In Vivo Anticancer Drug Screen. Data for tumor model L1210 Leukemia (intraperitoneal) in B6D2F1 (BDF1) mice
Settings: T/C endpoint: mean survival time, higher T/C = longer survival
[1] = dose: 100.0 mg/kg/injection, schedule: Q01DX009 (ip), vehicle: Klucel (hydroxypropylcellulose) (HPC)
[2] = dose: 200.0 mg/kg/injection, schedule: Q01DX009 (ip), vehicle: Klucel (hydroxypropylcellulose) (HPC)
[3] = dose: 400.0 mg/kg/injection, schedule: Q01DX009 (ip), vehicle: Klucel (hydroxypropylcellulose) (HPC)
[4] = dose: 100.0 mg/kg/injection, schedule: Q01DX001 (ip), vehicle: other
[5] = dose: 400.0 mg/kg/injection, schedule: Q04DX003 (ip), vehicle: Klucel (hydroxypropylcellulose) (HPC)
[6] = dose: 200.0 mg/kg/injection, schedule: Q04DX003 (ip), vehicle: saline with Tween-80
[7] = dose: 400.0 mg/kg/injection, schedule: Q04DX003 (ip), vehicle: saline with Tween-80
[8] = dose: 400.0 mg/kg/injection, schedule: Q01DX009 (ip), vehicle: saline
[9] = dose: 200.0 mg/kg/injection, schedule: Q04DX002 (ip), vehicle: Klucel (hydroxypropylcellulose) (HPC)

OCC1OC(n2ccc3c([Se]Cc4ccccc4)ncnc32)C(O)C1O (configuration not stated)
survivor count (dose: 12.5 mg/kg/injection, schedule: Q01DX009 (ip), vehicle: saline): 6 of 6
survivor count (dose: 25.0 mg/kg/injection, schedule: Q01DX009 (ip), vehicle: saline): 2 of 6
survivor count (dose: 50.0 mg/kg/injection, schedule: Q01DX005 (ip), vehicle: saline): 2 of 6
survivor count (dose: 100.0 mg/kg/injection, schedule: Q01DX005 (ip), vehicle: saline): 0 of 6
survivor count (dose: 200.0 mg/kg/injection, schedule: Q01DX005 (ip), vehicle: saline): 0 of 6

S=c1[nH]c2c(Cl)c(Cl)c(Cl)c(Cl)c2[nH]1
survivor count (dose: 400.0 mg/kg/injection, schedule: Q01DX009 (ip), vehicle: saline with Tween-80): 1 of 6

CC1CN=C(c2ccc(NC(=O)Nc3ccc(C4=NCCN4)cc3)cc2)N1 (configuration not stated)
survivor count (dose: 7.5 mg/kg/injection, schedule: Q01DX Z (ip), vehicle: saline): 6 of 6
survivor count (dose: 15.0 mg/kg/injection, schedule: Q01DX Z (ip), vehicle: saline): 0 of 6

CCOC(=O)NNC(=O)c1ccccc1
survivor count (dose: 75.0 mg/kg/injection, schedule: Q01DX009 (ip), vehicle: alcohol): 1 of 6
survivor count (dose: 100.0 mg/kg/injection, schedule: Q04DX003 (ip), vehicle: alcohol): 3 of 6
survivor count (dose: 115.0 mg/kg/injection, schedule: Q01DX009 (ip), vehicle: alcohol): 0 of 6
survivor count (dose: 170.0 mg/kg/injection, schedule: Q01DX009 (ip), vehicle: alcohol): 0 of 6

CCCCCCCCCC(=O)N/N=C/c1ccccc1Cl
survivor count [1]: 3 of 6
survivor count [2]: 1 of 6
survivor count [3]: 0 of 6

CCCCSc1n[nH]c(=O)nc1SC
survivor count (dose: 200.0 mg/kg/injection, schedule: Q01DX001 (ip), vehicle: acetone): 3 of 6
survivor count (dose: 400.0 mg/kg/injection, schedule: Q01DX001 (ip), vehicle: acetone): 0 of 6

CN(C)c1ccc(C(=C2C=CC(=[N+](C)C)C=C2)c2ccc(N(C)C)cc2)cc1
survivor count (dose: 400.0 mg/kg/injection, schedule: Q01DX001 (ip), vehicle: saline): 4 of 6

CCCC/C=C/CCCC
survivor count (dose: 150.0 mg/kg/injection, schedule: Q01DX009 (ip), vehicle: saline): 6 of 6

O=C1c2ccccc2C(=O)N1CCS(=O)(=O)Cl
survivor count (dose: 200.0 mg/kg/injection, schedule: Q01DX009 (ip), vehicle: carboxymethylcellulose (CMC)): 6 of 6

CCOC(=O)C1CCC(NC(=O)N(CCCl)N=O)CC1 (configuration not stated)
T/C (dose: 6.0 mg/kg/injection, schedule: Q01DX001 (ip), vehicle: other): 129 % of control
T/C (dose: 67.0 mg/kg/injection, schedule: Q01DX001 (ip), vehicle: other): 146 % of control [8 of 10 alive]
survivor count [4]: 8 of 10
survivor count (dose: 125.0 mg/kg/injection, schedule: Q01DX001 (ip), vehicle: other): 5 of 6
survivor count (dose: 250.0 mg/kg/injection, schedule: Q01DX001 (ip), vehicle: other): 2 of 6
survivor count (dose: 375.0 mg/kg/injection, schedule: Q01DX001 (ip), vehicle: other): 0 of 6
survivor count (dose: 500.0 mg/kg/injection, schedule: Q01DX001 (ip), vehicle: other): 0 of 6

CCc1nc(N)nc(N)c1-c1ccc(Cl)cc1
T/C (dose: 50.0 mg/kg/injection, schedule: Q01DX Z (ip), vehicle: carboxymethylcellulose (CMC)): 132 % of control [4 of 6 alive]
T/C (dose: 100.0 mg/kg/injection, schedule: Q01DX015 (ip), vehicle: carboxymethylcellulose (CMC)): 127 % of control

CCc1ccccc1NC(=O)Sc1cccc(C)c1
survivor count [2]: 0 of 6
survivor count [3]: 0 of 6
survivor count [5]: 2 of 6

COc1c(N)cc2c(c1C)OC(C)(C)C=C2
survivor count (dose: 100.0 mg/kg/injection, schedule: Q01DX009 (ip), vehicle: saline with Tween-80): 2 of 6
survivor count [6]: 3 of 6
survivor count [7]: 0 of 6 and 1 of 6

C/C(=N\NC(N)=S)C(O)c1ccccc1 (configuration not stated)
survivor count [4]: 0 of 4
survivor count (dose: 200.0 mg/kg/injection, schedule: Q01DX001 (ip), vehicle: other): 0 of 4
survivor count (dose: 400.0 mg/kg/injection, schedule: Q01DX001 (ip), vehicle: other): 0 of 4

CCCCCCCCCCCCC[n+]1ccc(C#N)cc1
survivor count (dose: 75.0 mg/kg/injection, schedule: Q01DX001 (ip), vehicle: saline): 2 of 6
survivor count (dose: 150.0 mg/kg/injection, schedule: Q01DX001 (ip), vehicle: saline): 0 of 6
survivor count (dose: 300.0 mg/kg/injection, schedule: Q01DX001 (ip), vehicle: saline): 0 of 6

O=C(NCCCl)Nc1ccccc1
survivor count (dose: 400.0 mg/kg/injection, schedule: Q01DX001 (ip), vehicle: Klucel (hydroxypropylcellulose) (HPC)): 1 of 6
survivor count [5]: 2 of 6

CC(=O)Nc1ccccc1N
T/C [8]: 130 [5 of 6 alive] and 138 % of control

N/N=C1/CCN2CCCc3cccc1c32
survivor count [7]: 6 of 6

C[N+]1(Cc2c[nH]c3ccsc23)CCCCC1
survivor count (dose: 25.0 mg/kg/injection, schedule: Q04DX003 (ip), vehicle: saline with Tween-80): 1 of 6
survivor count (dose: 50.0 mg/kg/injection, schedule: Q04DX003 (ip), vehicle: saline with Tween-80): 0 of 6
survivor count (dose: 100.0 mg/kg/injection, schedule: Q04DX003 (ip), vehicle: saline with Tween-80): 1 of 6
survivor count [6]: 0 of 6
survivor count [7]: 0 of 6

NC1CC[N-]CC1.NC1CC[N-]CC1.[Cl][Pt+2][Cl]
survivor count [8]: 5 of 6

CC(c1ccccc1)n1ccnc1CO (configuration not stated)
T/C (dose: 100.0 mg/kg/injection, schedule: Q04DX002 (ip), vehicle: Klucel (hydroxypropylcellulose) (HPC)): 95, 96, 110, 125 % of control
survivor count [2]: 5 of 6
T/C [9]: 96 [2 of 3 alive], 105 [5 of 6 alive], 108 % of control
survivor count [9]: 6 of 6
survivor count (dose: 200.0 mg/kg/injection, schedule: Q04DX003 (ip), vehicle: Klucel (hydroxypropylcellulose) (HPC)): 5 of 6
survivor count (dose: 400.0 mg/kg/injection, schedule: Q04DX002 (ip), vehicle: Klucel (hydroxypropylcellulose) (HPC)): 0 of 6, 2 of 3, 5 of 6

O=C(Nc1cccc([N+](=O)[O-])c1)Nc1ccccc1F
survivor count [1]: 6 of 6
survivor count [2]: 6 of 6
survivor count [3]: 6 of 6

c1ccc(N=NC(N=Nc2ccccc2)=P(c2ccccc2)(c2ccccc2)c2ccccc2)cc1
survivor count [3]: 2 of 6

C[N+](C)(C)/N=C\C1CC=CCC1 (configuration not stated)
survivor count (dose: 100.0 mg/kg/injection, schedule: Q01DX009 (ip), vehicle: saline): 0 of 3
survivor count (dose: 200.0 mg/kg/injection, schedule: Q01DX009 (ip), vehicle: saline): 0 of 3

CCCCCCCCCCCC(=O)[O][Pb]([CH2]CCC)([CH2]CCC)[O]C(=O)CCCCCCCCCCC
T/C (dose: 25.0 mg/kg/injection, schedule: Q04DX002 (ip), vehicle: gum acacia): 127 % of control
survivor count (dose: 50.0 mg/kg/injection, schedule: Q04DX002 (ip), vehicle: gum acacia): 0 of 3 and 1 of 3
survivor count (dose: 100.0 mg/kg/injection, schedule: Q04DX002 (ip), vehicle: gum acacia): 0 of 3
survivor count (dose: 200.0 mg/kg/injection, schedule: Q04DX002 (ip), vehicle: gum acacia): 0 of 3
survivor count (dose: 400.0 mg/kg/injection, schedule: Q04DX002 (ip), vehicle: gum acacia): 0 of 3

S=C(C#Cc1ccccc1)Nc1ccccc1
survivor count (dose: 400.0 mg/kg/injection, schedule: Q04DX002 (ip), vehicle: saline with Tween-80): 0 of 3

Nc1ccc(-c2ccc(Br)cc2)cc1
survivor count (dose: 300.0 mg/kg/injection, schedule: Q01DX001 (ip), vehicle: carboxymethylcellulose (CMC)): 1 of 6

CCOC(=O)C(C)F (configuration not stated)
survivor count (dose: 400.0 mg/kg/injection, schedule: Q01DX001 (ip), vehicle: carboxymethylcellulose (CMC)): 1 of 4

CCOC(=O)c1cc(C)n(-c2ccc(C(=O)O)cc2)c1C
survivor count [5]: 0 of 6
